Measured values published in publication PMC4085599, “Preliminary Studies on Validation of Calu-3 Cell Line as a Model for Screening Respiratory Mucosa Irritation and Toxicity” (Pharmaceutics, 2014).

Tested on: Calu-3 cells
Test: MTT cell viability assay on Calu-3 cells after exposure to test solutions
Assay type: cell-based, Human
Settings: 0.2% w/v, 60 min exposure
Description: The Calu-3 cells were used at passages 5–10. They were cultured in 96-well plates (Fisher Scientific) in 1:1 DMEM/F-12 supplemented with 10% FBS, 1% Glutamax®, 100 U/mL penicillin, and […] streptomycin using our previously described method. The tissue culture medium was changed every two days.
Irritant selection, concentration and exposure time were based on mucociliary clearance time and published work in which the compounds were used. […] In order to provide a basis for comparison with other published work using other models three concentrations of the chemicals were selected (0.2%, 0.4% and 1.0%). […] Subsequently, the effect of the test compounds on the cells was determined using MTT assay.
Cell viability screening was based on cellular mitochondrial dehydrogenase (MDH) activity, measured by MTT reduction and conversion to blue formazan salt that was quantified after extraction from cells. […] Extracted formazan salt was quantified spectrophotometrically at 570 nm using Synergy™ HT multimode microplate reader (BioTek Instruments Incorporated). The absorbance of isopropyl alcohol (100 μL) was used as blank. The reduction of cell viability in treated cells was compared to negative control (cells incubated with DMEM/F-12) and expressed as a percentage. […]

CCCCCCCCCCCCCCCC[n+]1ccccc1 [Cetylpyridinium bromide]
Calu-3 cells killed: more than 90%
